# The supplement of paper PMC8728848
# This is one part of the list.
# Assays:
# Test in all cases: glycan array binding signal (z-score within array); higher = stronger binding
# Settings in all cases: glycan notation: IUPAC condensed, linker removed
# [1] = target: Gal(b1-4)GlcNAc(b1-3)Gal(b1-4)GlcNAc(b1-3)Gal(b1-4)GlcNAc(b1-3)Gal(b1-4)GlcNAc(b1-2)[Gal(b1-4)GlcNAc(b1-3)Gal(b1-4)GlcNAc(b1-3)Gal(b1-4)GlcNAc(b1-3)Gal(b1-4)GlcNAc(b1-6)]Man(a1-6)[Gal(b1-4)GlcNAc(b1-3)Gal(b1-4)GlcNAc(b1-3)Gal(b1-4)GlcNAc(b1-3)Gal(b1-4)GlcNAc(b1-2)Man(a1-3)]Man(b1-4)GlcNAc(b1-4)[Fuc(a1-6)]GlcNAc
# Outline: (§1)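 Columns mapping to the same glycan were averaged after glycan names were converted to IUPAC-condensed notation. The data come from 3228 arrays in the Consortium for Functional Glycomics database, limited to those with an available protein sequence. Binding is reported as a within-array Z-score averaged across arrays of one protein sequence and across linkers.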
# [2] = target: Gal(b1-4)GlcNAc(b1-3)Gal(b1-4)GlcNAc(b1-3)Gal(b1-4)GlcNAc(b1-3)Gal(b1-4)GlcNAc(b1-3)Gal(b1-4)GlcNAc(b1-2)Man(a1-3)[Gal(b1-4)GlcNAc(b1-3)Gal(b1-4)GlcNAc(b1-3)Gal(b1-4)GlcNAc(b1-3)Gal(b1-4)GlcNAc(b1-3)Gal(b1-4)GlcNAc(b1-2)Man(a1-6)]Man(b1-4)GlcNAc(b1-4)GlcNAc
# Outline: as §1
# [3] = target: Gal(b1-4)GlcNAc(b1-3)Gal(b1-4)GlcNAc(b1-3)Gal(b1-4)GlcNAc(b1-3)Gal(b1-4)GlcNAc(b1-3)Gal(b1-4)GlcNAc(b1-2)Man(a1-3)[Gal(b1-4)GlcNAc(b1-3)Gal(b1-4)GlcNAc(b1-3)Gal(b1-4)GlcNAc(b1-3)Gal(b1-4)GlcNAc(b1-3)Gal(b1-4)GlcNAc(b1-2)Man(a1-6)]Man(b1-4)GlcNAc(b1-4)[Fuc(a1-6)]GlcNAc
# Outline: as §1
# [4] = target: Gal(b1-4)GlcNAc(b1-3)Gal(b1-4)GlcNAc(b1-3)Gal(b1-4)GlcNAc(b1-3)Gal(b1-4)GlcNAc(b1-3)Gal(b1-4)GlcNAc(b1-3)Gal(b1-4)GlcNAc(b1-2)Man(a1-3)[Gal(b1-4)GlcNAc(b1-3)Gal(b1-4)GlcNAc(b1-3)Gal(b1-4)GlcNAc(b1-3)Gal(b1-4)GlcNAc(b1-3)Gal(b1-4)GlcNAc(b1-3)Gal(b1-4)GlcNAc(b1-2)Man(a1-6)]Man(b1-4)GlcNAc(b1-4)GlcNAc
# Outline: as §1
# [5] = target: Gal(b1-4)GlcNAc(b1-3)Gal(b1-4)GlcNAc(b1-3)GalNAc
# Outline: as §1
# [6] = target: Gal(b1-4)GlcNAc(b1-3)Gal(b1-4)GlcNAc(b1-3)[Gal(b1-4)GlcNAc(b1-3)Gal(b1-4)GlcNAc(b1-6)]GalNAc
# Outline: as §1
# [7] = target: Gal(b1-4)GlcNAc(b1-3)Gal(b1-4)GlcNAc(b1-6)[Gal(b1-3)]GalNAc
# Outline: as §1
# [8] = target: Gal(b1-4)GlcNAc(b1-3)Gal(b1-4)[Fuc(a1-3)]GlcNAc(b1-3)Gal(b1-4)[Fuc(a1-3)]GlcNAc
# Outline: as §1
# [9] = target: Gal(b1-4)GlcNAc(b1-3)[Fuc(a1-3)GlcNAc(b1-6)]Gal(b1-4)Glc
# Outline: as §1
# [10] = target: Gal(b1-4)GlcNAc(b1-3)[Gal(b1-4)GlcNAc(b1-6)]Gal(b1-4)GlcNAc
# Outline: as §1
# [11] = target: Gal(b1-4)GlcNAc(b1-3)[GlcNAc(b1-6)]Gal(b1-4)GlcNAc
# Outline: as §1
# [12] = target: Gal(b1-4)GlcNAc(b1-6)Gal(b1-4)GlcNAc
# Outline: as §1
# [13] = target: Gal(b1-4)GlcNAc(b1-6)GalNAc
# Outline: as §1
# [14] = target: Gal(b1-4)GlcNAc(b1-6)[Gal(b1-3)]GalNAc
# Outline: as §1
# Gal(b1-4)GlcNAc6P = target: Gal(b1-4)GlcNAc6P
# Outline: as §1
# Gal(b1-6)Gal = target: Gal(b1-6)Gal
# Outline: as §1
# Gal3S(b1-3)GalNAc = target: Gal3S(b1-3)GalNAc
# Outline: as §1
# Gal3S(b1-3)GlcNAc = target: Gal3S(b1-3)GlcNAc
# Outline: as §1
# [15] = target: Gal3S(b1-3)[Fuc(a1-4)]GlcNAc
# Outline: as §1
# Gal3S(b1-4)Glc6S = target: Gal3S(b1-4)Glc6S
# Outline: as §1
# Gal3S(b1-4)GlcNAc = target: Gal3S(b1-4)GlcNAc
# Outline: as §1
# [16] = target: Gal3S(b1-4)[Fuc(a1-3)]Glc6S
# Outline: as §1
# [17] = target: Gal3S(b1-4)[Fuc(a1-3)]GlcNAc
# Outline: as §1
# [18] = target: Gal3S(b1-4)[Fuc(a1-3)]GlcNAc6S
# Outline: as §1
# Gal3S4S(b1-4)GlcNAc = target: Gal3S4S(b1-4)GlcNAc
# Outline: as §1
# Gal3S6S(b1-4)GlcNAc = target: Gal3S6S(b1-4)GlcNAc
# Outline: as §1
# Gal3S6S(b1-4)GlcNAc6S = target: Gal3S6S(b1-4)GlcNAc6S
# Outline: as §1
# Gal4S(b1-4)GlcNAc = target: Gal4S(b1-4)GlcNAc
# Outline: as §1
# Gal4S6S(b1-4)GlcNAc = target: Gal4S6S(b1-4)GlcNAc
# Outline: as §1
# Gal6P(b1-4)GlcNAc = target: Gal6P(b1-4)GlcNAc
# Outline: as §1
# Gal6S(b1-3)GlcNAc = target: Gal6S(b1-3)GlcNAc
# Outline: as §1
# Gal6S(b1-3)GlcNAc6S = target: Gal6S(b1-3)GlcNAc6S
# Outline: as §1
# Gal6S(b1-4)Glc = target: Gal6S(b1-4)Glc
# Outline: as §1
# Gal6S(b1-4)Glc6S = target: Gal6S(b1-4)Glc6S
# Outline: as §1
# Gal6S(b1-4)GlcNAc = target: Gal6S(b1-4)GlcNAc
# Outline: as §1
# GalNAc(a1-3)Gal = target: GalNAc(a1-3)Gal
# Outline: as §1
# GalNAc(a1-3)GalNAc = target: GalNAc(a1-3)GalNAc
# Outline: as §1
# [19] = target: GalNAc(a1-3)GalNAc(b1-3)Gal(a1-4)Gal(b1-4)Glc
# Outline: as §1
# [20] = target: GalNAc(a1-3)GalNAc(b1-3)Gal(a1-4)Gal(b1-4)GlcNAc
# Outline: as §1
# GalNAc(b1-3)Gal = target: GalNAc(b1-3)Gal
# Outline: as §1
# [21] = target: GalNAc(b1-3)Gal(a1-4)Gal(b1-4)GlcNAc
# Outline: as §1
# [22] = target: GalNAc(b1-3)Gal(a1-4)Gal(b1-4)GlcNAc(b1-3)Gal(b1-4)Glc
# Outline: as §1
# [23] = target: GalNAc(b1-3)Gal(a1-6)Gal(b1-4)Glc
# Outline: as §1
# GalNAc(b1-3)GalNAc = target: GalNAc(b1-3)GalNAc
# Outline: as §1
# GalNAc(b1-3)GlcNAc = target: GalNAc(b1-3)GlcNAc
# Outline: as §1
binder,measurement,setting,value
PX14351B-bth-512-36-512 (Bacteroides thetaiotaomicron) (protein) ASETQQWKTLEDTRSALMGVYGLTRAALADNNTHWICGDLRKGDFTVYKRSDLQAVSDNELNKPYDLLKKVSNWRRFYAVINAASVFMEKAPRTVELDRSYSEQNLKYDIAQVRALRAFAYFYMVRIWGDVPLVTYSYDNGTFPSMPRTDAQTVLSYAKAELLTAIEDLPYQYGTQTNLYYGSYGAQWQGKLFNKLSAYSVLAHICAWQGNYAEAETYSAFIIDHASEINAKYTSIADLTSETGLFYSNASVKGSRILGFNFAHNDNEATQSGHLEQLTLAYPLVQKSYPEIYISKDSLFSIFTNFDDLRFGIIDTIKYSSYYVQNLNEETPVFSKIKIIQDGSAKDNDFGVFGSSIVFTRLEDITLLRAEALCALNRSTEAVSYLNMIRTNRGLREVSFKKDFGNNRESLIAEIFEERRRELMGEGWRWYDLVRRQKLMKDNEAFLRLISSGGIYWPVSEDIITANSQIEQNEFWK,glycan array binding signal (z-score),[1],1.34
same,glycan array binding signal (z-score),[2],0.443
same,glycan array binding signal (z-score),[3],0.878
same,glycan array binding signal (z-score),[4],0.858
same,glycan array binding signal (z-score),[5],-0.237
same,glycan array binding signal (z-score),[6],-0.098
same,glycan array binding signal (z-score),[7],0.178
same,glycan array binding signal (z-score),[8],-0.093
same,glycan array binding signal (z-score),[9],-0.291
same,glycan array binding signal (z-score),[10],0.262
same,glycan array binding signal (z-score),[11],-0.242
same,glycan array binding signal (z-score),[12],-0.218
same,glycan array binding signal (z-score),[13],0.363
same,glycan array binding signal (z-score),[14],-0.306
same,glycan array binding signal (z-score),Gal(b1-4)GlcNAc6P,-0.321
same,glycan array binding signal (z-score),Gal(b1-6)Gal,-0.237
same,glycan array binding signal (z-score),Gal3S(b1-3)GalNAc,-0.216
same,glycan array binding signal (z-score),Gal3S(b1-3)GlcNAc,-0.034
same,glycan array binding signal (z-score),[15],0.222
same,glycan array binding signal (z-score),Gal3S(b1-4)Glc6S,-0.305
same,glycan array binding signal (z-score),Gal3S(b1-4)GlcNAc,0.002
same,glycan array binding signal (z-score),[16],-0.265
same,glycan array binding signal (z-score),[17],-0.025
same,glycan array binding signal (z-score),[18],-0.168
same,glycan array binding signal (z-score),Gal3S4S(b1-4)GlcNAc,0.128
same,glycan array binding signal (z-score),Gal3S6S(b1-4)GlcNAc,0.221
same,glycan array binding signal (z-score),Gal3S6S(b1-4)GlcNAc6S,-0.391
same,glycan array binding signal (z-score),Gal4S(b1-4)GlcNAc,-0.256
same,glycan array binding signal (z-score),Gal4S6S(b1-4)GlcNAc,-0.338
same,glycan array binding signal (z-score),Gal6P(b1-4)GlcNAc,-0.297
same,glycan array binding signal (z-score),Gal6S(b1-3)GlcNAc,-0.276
same,glycan array binding signal (z-score),Gal6S(b1-3)GlcNAc6S,-0.195
same,glycan array binding signal (z-score),Gal6S(b1-4)Glc,0.182
same,glycan array binding signal (z-score),Gal6S(b1-4)Glc6S,0.987
same,glycan array binding signal (z-score),Gal6S(b1-4)GlcNAc,-0.212
same,glycan array binding signal (z-score),GalNAc(a1-3)Gal,0.243
same,glycan array binding signal (z-score),GalNAc(a1-3)GalNAc,-0.236
same,glycan array binding signal (z-score),[19],-0.24
same,glycan array binding signal (z-score),[20],-0.27
same,glycan array binding signal (z-score),GalNAc(b1-3)Gal,-0.237
same,glycan array binding signal (z-score),[21],-0.161
same,glycan array binding signal (z-score),[22],-0.096
same,glycan array binding signal (z-score),[23],-0.324
same,glycan array binding signal (z-score),GalNAc(b1-3)GalNAc,-0.004
same,glycan array binding signal (z-score),GalNAc(b1-3)GlcNAc,-0.256

# Reprinted at random: 3 entries already listed
binder,measurement,setting,value
PX14351B-bth-512-36-512 (Bacteroides thetaiotaomicron) (protein) ASETQQWKTLEDTRSALMGVYGLTRAALADNNTHWICGDLRKGDFTVYKRSDLQAVSDNELNKPYDLLKKVSNWRRFYAVINAASVFMEKAPRTVELDRSYSEQNLKYDIAQVRALRAFAYFYMVRIWGDVPLVTYSYDNGTFPSMPRTDAQTVLSYAKAELLTAIEDLPYQYGTQTNLYYGSYGAQWQGKLFNKLSAYSVLAHICAWQGNYAEAETYSAFIIDHASEINAKYTSIADLTSETGLFYSNASVKGSRILGFNFAHNDNEATQSGHLEQLTLAYPLVQKSYPEIYISKDSLFSIFTNFDDLRFGIIDTIKYSSYYVQNLNEETPVFSKIKIIQDGSAKDNDFGVFGSSIVFTRLEDITLLRAEALCALNRSTEAVSYLNMIRTNRGLREVSFKKDFGNNRESLIAEIFEERRRELMGEGWRWYDLVRRQKLMKDNEAFLRLISSGGIYWPVSEDIITANSQIEQNEFWK,glycan array binding signal (z-score),[1],1.34
same,glycan array binding signal (z-score),[16],-0.265
same,glycan array binding signal (z-score),Gal4S6S(b1-4)GlcNAc,-0.338
